In PubChem BioAssay AID2685 (National Center for Advancing Translational Sciences (NCATS), 2010):
The other results are listed elsewhere or left out. These are further read-outs of the screen, such as a control signal, another cell line or another target. No call is given for them. Compounds called inactive in the main read-out are mostly missing here. Potencies come from curve fits of mixed quality, noted in brackets.

Test: qHTS Assay for Lipid Storage Modulators in Drosophila S3 Cells;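 for cell number change: cells counted by Cell Tracker Red CMTPX staining in the red channel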
Settings: BODIPY lipid droplet fluorescence, 18-24 h; for cell number change: measured here: cell count max response, cells fed with added oleic acid
In short: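 Laser-scanning cytometry quantifies lipid droplet accumulation (500–530 nm total intensity; droplet/cell object ratio) in oleic acid-fed (400 uM added) Drosophila S3 cells treated with a concentration series. 20 uM Triacsin C defined 100% inhibition.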

[1] = measured here: lipid fluorescence (Fed channel) AC50, cells fed with added oleic acid
[2] = measured here: cell number channel AC50, cells fed with added oleic acid

| Compound | cell number change | AC50 [1] | AC50 [2] |
| --- | --- | --- | --- |
| CCOc1ncnc2c1oc1nc(CC(C)C)c3c(c12)CC(C)(C)OC3 | -3.75% | 1.84 µM [falling, partial curve, poor fit] |  |
| CCOC(=O)N1CCN(C(=S)NC)CC1 | -17% | 3.26 µM [falling, single point] | 0.146 µM [falling, full curve, poor fit] |
| N#CCSc1nc2ccccc2c(=O)n1-c1ccccc1 | -8.96% |  |  |
| COc1ccc(N(CC(=O)N/N=C/c2ccc(N(C)C)cc2)S(=O)(=O)c2ccccc2)cc1 | 16.2% |  |  |
| COc1ccc(OC)c(NC(=O)C2C3CCC(C3=C(C)C)C2C(=O)O)c1 (stereo not given) | 90.8% |  | 9.2 µM [rising, partial curve] |
| COCCc1nc2ccc(C(=O)NCc3cccc(-n4cccn4)c3)cc2o1 | -9.14% |  |  |
| CC(=O)NCC(=O)NC1CCCc2c1cnn2-c1ccccc1F (stereo not given) | 14.6% | 29.1 µM [rising, single point] |  |
| Cc1ccc(NC(=O)C(C)N2CCc3ccccc3C2)cc1 (stereo not given) | 6.41% | 0.116 µM [falling, single point] |  |
| CC(OC(=O)CC(C)c1ccccc1)C(=O)Nc1ccc(Cl)cn1 (stereo not given) | -50% |  | 29.1 µM [falling, single point] |
| Cc1ccccc1C(=O)N1CCN(c2ccc(NC(=S)NC(=O)c3ccco3)cc2)CC1 | -23% | 0.731 µM [falling, full curve] |  |
| Cc1ccc(-n2nc(C)c(C3(O)C(=O)N(C(C)C)c4ccccc43)c2N)cc1 (stereo not given) | 13.9% |  | 2.06 µM [falling, partial curve] |
| O=C(CN(C(=O)CCC(=O)Nc1nccs1)c1cccc(F)c1)NCc1ccccc1 | 65.3% |  | 32.6 µM [rising, single point] |
| C=CCc1cc(C)ccc1OCCCC(C(=O)OCC)C(=O)OCC | 9.85% |  |  |
| Cc1cccc(NC(=O)[C@@H]2CCCN2C2=NS(=O)(=O)c3ccccc32)c1C | 13.8% | 2.06 µM [falling, single point] |  |
| CCOc1ccc(C(=O)OCC(=O)NCc2ccccc2)cc1OCC | 0.0684% | 0.00517 µM [rising, full curve, poor fit] |  |
| CCCc1cc(=O)n2c([nH]c3ccccc32)c1C#N | 31.2% | 2.91 µM [rising, single point] | 5.17 µM [rising, partial curve, poor fit] |
| CCC(Sc1nc(C)cc(C)n1)C(=O)NC1=NN=C(c2ccc(C)cc2)CS1 (stereo not given) | 11.3% |  |  |
| COc1ccc(Cc2nc3ccc(C(=O)N4CCN(C)C(C)C4)cc3o2)cc1OC (stereo not given) | -15.6% |  |  |
| Cc1ncc(CN2CCCC(C(=O)Nc3ccc(-c4cccc(F)c4)cc3)C2)n1C (stereo not given) |  | 29.1 µM [rising, single point] |  |
| CCOc1cc(/C=N/Nc2nc(-c3cccc(S(=O)(=O)N4CCCC4)c3)cs2)ccc1O | 1.3% |  |  |

| Compound | cell number change | AC50 [1] | AC50 [2] |
| --- | --- | --- | --- |
| Cc1ccc(NC(=O)c2cc(-c3ccco3)nc3ccccc23)cc1S(=O)(=O)N1CCOCC1 | 38.9% | 18.4 µM [rising, single point] | 16.4 µM [rising, single point] |
| COc1ccc(C(=O)Nc2c(-c3ccccc3)nc3ccccn23)c(OC)c1 | 1.42% | 14.6 µM [rising, partial curve] |  |
| CC1=NN(C(N)=S)C(=O)C1N=Nc1cccc(C(=O)O)c1 (stereo not given) | 4.67% | 0.58 µM [rising, full curve] |  |
| CCCC(=O)OCC(=O)Nc1ccc(OC(F)F)cc1 | 43.3% | 0.00517 µM [rising, full curve, poor fit] | 6.51 µM [rising, partial curve, poor fit] |
| OC1C(O)C(O)C(O)C(O)C1O (stereo not given) | -23.8% | 29.1 µM [falling, single point] |  |
| COc1ccc(CCNC(=O)C2CCCN2C(=O)NC2CCCCC2)cc1OC (stereo not given) | -1.6% | 29.1 µM [falling, single point] |  |
| CC(C)CCC(O)(CCC(C)C)C(=O)NN1CCCCC1 | -13% |  |  |
| COc1cc(/C=C2/C(=N)N3C(=NC2=O)SN=C3S(C)(=O)=O)ccc1OC(=O)c1ccco1 | -11.5% | 29.1 µM [falling, single point] |  |
| O=C(NCCN1CCOCC1)c1c(F)c(F)c(F)c(F)c1F | -37.8% | 11.6 µM [falling, partial curve] | 0.517 µM [falling, full curve] |
| O=C(N=NC(=O)c1ccco1)c1ccc2c(O)n(N3C(=O)c4ccccc4C3=O)c(O)c2c1 | -0.782% | 1.84 µM [rising, partial curve, poor fit] | 1.64 µM [rising, partial curve, poor fit] |
| O=C(N/N=C/c1ccc(Cl)cc1)C(=O)N1CCCCCC1 | -3.32% | 29.1 µM [rising, single point] |  |
| Cc1cc(S(=O)(=O)Nc2nc(CN3CCOCC3)nc3sc4c(c23)CCCC4)ccc1F |  | 2.31 µM [rising, partial curve] | 3.66 µM [rising, single point] |
| Cc1cc(F)ccc1NC(=O)C(C)n1c2ccccc2c2nc(=O)cc(C)n21 (stereo not given) | 28.3% | 6.51 µM [falling, single point] |  |
| CCCCn1c(N)c(N(CCOC)C(=O)C2CC(=O)N(c3ccc(CC)cc3)C2)c(=O)[nH]c1=O (stereo not given) | 11.8% | 6.51 µM [falling, single point] |  |
| CC(=O)N1C(=O)/C(=C2\SC(=S)N(NC(=O)c3ccc(O)cc3)C2=O)c2ccccc21 | 5.22% |  | 0.82 µM [rising, single point] |
| O=c1[nH]c(-c2ccccc2)c(-c2ccccc2)[nH]1 | 8.05% | 3.26 µM [falling, single point] |  |
| Cc1ccc(C(=O)NC(=S)NCc2cccnc2)cc1 | 11.9% | 7.08 µM [rising, full curve, poor fit] |  |
| CC(c1nc2ccccc2c(=O)[nH]1)N(C)CCOc1ccc(Cl)cc1 (stereo not given) | -0.936% |  |  |
| CC(=O)OC1(C(F)(F)F)Oc2ccccc2NC1=O (stereo not given) | -34.3% | 3.66 µM [falling, full curve] | 3.66 µM [falling, full curve] |
| CC1Cc2ccccc2N1C(=O)CCS(=O)(=O)c1cccs1 (stereo not given) | -17.7% | 0.82 µM [falling, single point] |  |

| Compound | cell number change | AC50 [1] | AC50 [2] |
| --- | --- | --- | --- |
| COc1ccc(COc2cc(-c3cccc(OC)c3)nc3ccc(NC(=O)c4ccc(OC)cc4)cc23)cc1 | 8.57% | 8.2 µM [rising, partial curve] |  |
| NC(=O)c1ccccc1OCC(=O)Nc1cccnc1Cl | -9.77% | 3.26 µM [rising, partial curve, poor fit] |  |
| COc1ccc(NC(=O)c2cccc(N3C(=O)C4C5C=CC(C6CC56)C4C3=O)c2)c(OC)c1 (stereo not given) |  | 6.51 µM [falling, single point] |  |
| Cc1ncc(CN2CCCC(C(=O)Nc3ccc(-c4ccco4)cc3)C2)n1C (stereo not given) | 4.32% |  |  |
| O=C(c1ccc(S(=O)(=O)NCc2ccco2)cc1)N1CCCC1 |  |  | 0.00517 µM [falling, full curve, poor fit] |
| COc1ccc(CNC(=O)C(C)N2C(=O)COc3ccc(C)cc32)c(OC)c1 (stereo not given) | -34.2% | 1.46 µM [falling, partial curve] | 0.92 µM [falling, full curve, poor fit] |
| CC(C)CCN1C(=O)c2ccccc2C1C(=O)NCc1cccnc1 (stereo not given) |  | 6.51 µM [rising, single point] |  |
| Cc1ccc(-c2onc(C)c2C)cc1S(=O)(=O)N1CCOc2ccccc21 | 21.4% | 29.1 µM [falling, single point] |  |
| COc1ccc(NC(=O)C(CC(=O)O)Cc2ccc(Br)cc2)cc1 (stereo not given) | 31.2% |  | 0.00411 µM [rising, full curve, poor fit] |
| CCOc1ccc2[nH]c(=O)c(CN(Cc3ccc(F)cc3)C(=O)N3CCCC3)cc2c1 | -4.88% | 0.092 µM [rising, full curve, poor fit] |  |
| Cc1ccccc1C(=O)OC1CCCN(C)C1 (stereo not given) | 16.8% |  |  |
| COc1ccc2c(c1)c(=O)oc1cc(OCC(=O)NCC3CCC(C(=O)O)CC3)ccc12 (stereo not given) | -0.386% | 0.00461 µM [rising, full curve, poor fit] |  |
| Nc1ccc(Cl)c(S(=O)(=O)Nc2ccc(Cl)cc2)c1 | 34.4% | 6.51 µM [rising, partial curve] | 6.51 µM [rising, partial curve, poor fit] |
| COc1cccc(-c2c(C(=O)N/N=C/c3ccncc3)nnn2-c2nonc2N)c1 | 7.66% | 7.31 µM [falling, partial curve] |  |
| CCOc1ccc(Br)cc1S(=O)(=O)NC1CC(C)(C)NC(C)(C)C1 | -9.82% | 0.92 µM [rising, full curve, poor fit] |  |
| C/C(CCC(C)C)=N\NC(=S)Nc1cc(S(=O)(=O)N2CCOCC2)ccc1N1CCOCC1 | -20.6% | 0.116 µM [falling, full curve, poor fit] |  |
| CCN(c1ccc(OC)cc1)S(=O)(=O)N1CCCC(C(=O)NCc2ccccc2Br)C1 (stereo not given) | -29.1% | 29.1 µM [falling, single point] |  |
| CSc1ccc(CN(C)C(=O)c2cc(=O)[nH]c3ccccc23)cc1 | 12.9% | 29.1 µM [falling, single point] | 0.651 µM [rising, partial curve, poor fit] |
| O=C(NC1CCCCC1)c1cc(-c2ccc(O)cc2)on1 | 28.3% | 0.58 µM [falling, single point] |  |
| COc1ccc(Nc2ccnc(Nc3ccc(OC)cc3)n2)cc1 | -56.9% |  | 29.1 µM [falling, single point] |

Structural class: those above with a thiophene ring, fused or not

| Compound | cell number change | AC50 [1] | AC50 [2] |
| --- | --- | --- | --- |
| Cc1cc(S(=O)(=O)Nc2nc(CN3CCOCC3)nc3sc4c(c23)CCCC4)ccc1F |  | 2.31 µM [rising, partial curve] | 3.66 µM [rising, single point] |
| CC1Cc2ccccc2N1C(=O)CCS(=O)(=O)c1cccs1 (stereo not given) | -17.7% | 0.82 µM [falling, single point] |  |
